The other results are listed elsewhere or left out.
Assays:
Test in all cases: glycan array binding signal (z-score within array); higher = stronger binding
Conditions in all cases: glycan notation: IUPAC condensed, linker removed
[1] = biological target: Neu5Ac(a2-3)Gal(b1-3)GlcNAc(b1-6)GalNAc
Method in brief: (§1)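 Negative Z-scores can be read as non-binding. The Z-score is calculated within each array and then averaged across arrays of one protein sequence at different concentrations or buffers and across linkers. Arrays, 3228 in all, were curated from the Consortium for Functional Glycomics database and kept only where the protein sequence was available.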

[2] = biological target: Neu5Ac(a2-3)Gal(b1-3)GlcNAc6S
Method in brief: as §1

[3] = biological target: Neu5Ac(a2-3)Gal(b1-3)[Fuc(a1-4)]GlcNAc
Method in brief: as §1

[4] = biological target: Neu5Ac(a2-3)Gal(b1-3)[Fuc(a1-4)]GlcNAc(b1-3)Gal(b1-3)[Fuc(a1-4)]GlcNAc
Method in brief: as §1

[5] = biological target: Neu5Ac(a2-3)Gal(b1-3)[Fuc(a1-4)]GlcNAc(b1-3)Gal(b1-4)[Fuc(a1-3)]GlcNAc
Method in brief: as §1

[6] = biological target: Neu5Ac(a2-3)Gal(b1-3)[GlcNAc(b1-6)]GalNAc
Method in brief: as §1

[7] = biological target: Neu5Ac(a2-3)Gal(b1-3)[Neu5Ac(a2-6)]GalNAc
Method in brief: as §1

[8] = biological target: Neu5Ac(a2-3)Gal(b1-3)[Neu5Ac(a2-6)]GlcNAc(b1-3)[Fuc(a1-3)[Gal(b1-4)]GlcNAc(b1-6)]Gal(b1-4)Glc
Method in brief: as §1

[9] = biological target: Neu5Ac(a2-3)Gal(b1-3)]Neu5Ac(a2-3)Gal(b1-4)]GlcNAc
Method in brief: as §1

[10] = biological target: Neu5Ac(a2-3)Gal(b1-4)Glc
Method in brief: as §1

[11] = biological target: Neu5Ac(a2-3)Gal(b1-4)GlcNAc
Method in brief: as §1

[12] = biological target: Neu5Ac(a2-3)Gal(b1-4)GlcNAc(b1-2)Man
Method in brief: as §1

[13] = biological target: Neu5Ac(a2-3)Gal(b1-4)GlcNAc(b1-2)Man(a1-3)[GlcNAc(b1-4)][Neu5Ac(a2-3)Gal(b1-4)GlcNAc(b1-2)Man(a1-6)]Man(b1-4)GlcNAc(b1-4)GlcNAc
Method in brief: as §1

[14] = biological target: Neu5Ac(a2-3)Gal(b1-4)GlcNAc(b1-2)Man(a1-3)[Neu5Ac(a2-3)Gal(b1-4)GlcNAc(b1-2)Man(a1-6)]Man(b1-4)GlcNAc(b1-4)GlcNAc
Method in brief: as §1

[15] = biological target: Neu5Ac(a2-3)Gal(b1-4)GlcNAc(b1-2)Man(a1-3)[Neu5Ac(a2-3)Gal(b1-4)GlcNAc(b1-2)Man(a1-6)]Man(b1-4)GlcNAc(b1-4)[Fuc(a1-6)]GlcNAc
Method in brief: as §1

[16] = biological target: Neu5Ac(a2-3)Gal(b1-4)GlcNAc(b1-2)Man(a1-3)[Neu5Ac(a2-6)Gal(b1-4)GlcNAc(b1-2)Man(a1-6)]Man(b1-4)GlcNAc(b1-4)GlcNAc
Method in brief: as §1

[17] = biological target: Neu5Ac(a2-3)Gal(b1-4)GlcNAc(b1-2)[Neu5Ac(a2-3)Gal(b1-4)GlcNAc(b1-4)]Man(a1-3)[GlcNAc(b1-4)][Neu5Ac(a2-3)Gal(b1-4)GlcNAc(b1-2)[Neu5Ac(a2-3)Gal(b1-4)GlcNAc(b1-6)]Man(a1-6)]Man(b1-4)GlcNAc(b1-4)GlcNAc
Method in brief: as §1

[18] = biological target: Neu5Ac(a2-3)Gal(b1-4)GlcNAc(b1-2)[Neu5Ac(a2-3)Gal(b1-4)GlcNAc(b1-4)]Man(a1-3)[GlcNAc(b1-4)][Neu5Ac(a2-3)Gal(b1-4)GlcNAc(b1-4)Man(a1-6)]Man(b1-4)GlcNAc(b1-4)GlcNAc
Method in brief: as §1

[19] = biological target: Neu5Ac(a2-3)Gal(b1-4)GlcNAc(b1-2)[Neu5Ac(a2-3)Gal(b1-4)GlcNAc(b1-6)]Man(a1-6)[Neu5Ac(a2-3)Gal(b1-4)GlcNAc(b1-2)Man(a1-3)][GlcNAc(b1-4)]Man(b1-4)GlcNAc(b1-4)GlcNAc
Method in brief: as §1

[20] = biological target: Neu5Ac(a2-3)Gal(b1-4)GlcNAc(b1-3)Gal
Method in brief: as §1

[21] = biological target: Neu5Ac(a2-3)Gal(b1-4)GlcNAc(b1-3)Gal(b1-3)GlcNAc
Method in brief: as §1

[22] = biological target: Neu5Ac(a2-3)Gal(b1-4)GlcNAc(b1-3)Gal(b1-4)GlcNAc
Method in brief: as §1

[23] = biological target: Neu5Ac(a2-3)Gal(b1-4)GlcNAc(b1-3)Gal(b1-4)GlcNAc(b1-2)Man(a1-3)[Neu5Ac(a2-3)Gal(b1-4)GlcNAc(b1-3)Gal(b1-4)GlcNAc(b1-2)Man(a1-6)]Man(b1-4)GlcNAc(b1-4)GlcNAc
Method in brief: as §1

[24] = biological target: Neu5Ac(a2-3)Gal(b1-4)GlcNAc(b1-3)Gal(b1-4)GlcNAc(b1-3)Gal(b1-4)GlcNAc
Method in brief: as §1

[25] = biological target: Neu5Ac(a2-3)Gal(b1-4)GlcNAc(b1-3)Gal(b1-4)GlcNAc(b1-3)Gal(b1-4)GlcNAc(b1-2)Man(a1-3)[Neu5Ac(a2-3)Gal(b1-4)GlcNAc(b1-3)Gal(b1-4)GlcNAc(b1-3)Gal(b1-4)GlcNAc(b1-2)Man(a1-6)]GalNAc
Method in brief: as §1

[26] = biological target: Neu5Ac(a2-3)Gal(b1-4)GlcNAc(b1-3)Gal(b1-4)GlcNAc(b1-3)GalNAc
Method in brief: as §1

[27] = biological target: Neu5Ac(a2-3)Gal(b1-4)GlcNAc(b1-3)Gal(b1-4)GlcNAc(b1-3)[Neu5Ac(a2-3)Gal(b1-4)GlcNAc(b1-3)Gal(b1-4)GlcNAc(b1-6)]GalNAc
Method in brief: as §1

[28] = biological target: Neu5Ac(a2-3)Gal(b1-4)GlcNAc(b1-3)Gal(b1-4)GlcNAc(b1-6)[Gal(b1-3)]GalNAc
Method in brief: as §1

[29] = biological target: Neu5Ac(a2-3)Gal(b1-4)GlcNAc(b1-3)Gal(b1-4)[Fuc(a1-3)]GlcNAc
Method in brief: as §1

[30] = biological target: Neu5Ac(a2-3)Gal(b1-4)GlcNAc(b1-3)GalNAc
Method in brief: as §1

B1: R2-fiber (Pseudomonas aeruginosa), Q9S576 (protein)
chain: HHHHHHKVAKDLVVSLAYQVRTEDGVLVDESPVSAPLDYLHGHGSLISGLETALEGHEVGDKFDVAVGANDAYGQYDENLVQRVPKDVFMGVDELQVGMRFLAETDQGPVPVEITAVEDDHVVVDGNHMLAGQNLKFNVEVVAIREATEEELAHGHVHGAHDHHHDHDHDGCCGGHGHDHGHEHGGEGCCGGKGNGGCGCHENLYFQGVTAGMALAATDIPGLDASKLVSGVLAEQRLPVFARGLATAVSNSSDPNTATVPLMLTNHANGPVAGRYFYIQSMFYPDQNGNASQIATSYNATSEMYVRVSYAANPSIREWLPWQRCDIGGSFTKEADGELPGGVNLDSMVTSGWWSQSFTAQAASGANYPIVRAGLLHVYAASSNFIYQTYQAYDGESFYFRCRHSNTWFPWRRMWHGGDFNPSDYLLKSGFYWNALPGKPATFPPSAHNHDVGQLTSGILPLARGGVGSNTAAGARSTIGAGVPATASLGASGWWRDNDTGLIRQWGQVTCPADADASITFPIPFPTLCLGGYANQTSAFHPGTDASTGFRGATTTTAVIRNGYFAQAVLSWEAFGR
glycan array binding signal (z-score) [1]: -0.599 | glycan array binding signal (z-score) [2]: 0.439 | glycan array binding signal (z-score) [3]: 0.079 | glycan array binding signal (z-score) [4]: -0.192 | glycan array binding signal (z-score) [5]: -0.701 | glycan array binding signal (z-score) [6]: -0.889 | glycan array binding signal (z-score) [7]: -0.402 | glycan array binding signal (z-score) [8]: 0.499 | glycan array binding signal (z-score) [9]: -0.347 | glycan array binding signal (z-score) [10]: -0.261 | glycan array binding signal (z-score) [11]: 0.039 | glycan array binding signal (z-score) [12]: -0.09 | glycan array binding signal (z-score) [13]: -0.269 | glycan array binding signal (z-score) [14]: 0.569 | glycan array binding signal (z-score) [15]: 5.23 | glycan array binding signal (z-score) [16]: -0.424 | glycan array binding signal (z-score) [17]: -0.702 | glycan array binding signal (z-score) [18]: -0.543 | glycan array binding signal (z-score) [19]: -0.558 | glycan array binding signal (z-score) [20]: -0.851 | glycan array binding signal (z-score) [21]: -0.08 | glycan array binding signal (z-score) [22]: -0.303 | glycan array binding signal (z-score) [23]: -0.592 | glycan array binding signal (z-score) [24]: -0.146 | glycan array binding signal (z-score) [25]: 0.308 | glycan array binding signal (z-score) [26]: -0.526 | glycan array binding signal (z-score) [27]: -0.406 | glycan array binding signal (z-score) [28]: -0.722 | glycan array binding signal (z-score) [29]: -0.816 | glycan array binding signal (z-score) [30]: -0.287
